The target in the experiment is DCAF1 C-terminus containing residues 1339–1507 (UniProt Q9Y4B6). Briefly: co-IP; DCAF1 deletion mutants transiently transfected into HCC cells; immunoprecipitation and Western blot.

Chains of the proteins cited; added tags and fusions are not shown. Lines headed by an entry give the natural chain unless they say otherwise; changes in a name come on top.
UniProt Q9Y4B6: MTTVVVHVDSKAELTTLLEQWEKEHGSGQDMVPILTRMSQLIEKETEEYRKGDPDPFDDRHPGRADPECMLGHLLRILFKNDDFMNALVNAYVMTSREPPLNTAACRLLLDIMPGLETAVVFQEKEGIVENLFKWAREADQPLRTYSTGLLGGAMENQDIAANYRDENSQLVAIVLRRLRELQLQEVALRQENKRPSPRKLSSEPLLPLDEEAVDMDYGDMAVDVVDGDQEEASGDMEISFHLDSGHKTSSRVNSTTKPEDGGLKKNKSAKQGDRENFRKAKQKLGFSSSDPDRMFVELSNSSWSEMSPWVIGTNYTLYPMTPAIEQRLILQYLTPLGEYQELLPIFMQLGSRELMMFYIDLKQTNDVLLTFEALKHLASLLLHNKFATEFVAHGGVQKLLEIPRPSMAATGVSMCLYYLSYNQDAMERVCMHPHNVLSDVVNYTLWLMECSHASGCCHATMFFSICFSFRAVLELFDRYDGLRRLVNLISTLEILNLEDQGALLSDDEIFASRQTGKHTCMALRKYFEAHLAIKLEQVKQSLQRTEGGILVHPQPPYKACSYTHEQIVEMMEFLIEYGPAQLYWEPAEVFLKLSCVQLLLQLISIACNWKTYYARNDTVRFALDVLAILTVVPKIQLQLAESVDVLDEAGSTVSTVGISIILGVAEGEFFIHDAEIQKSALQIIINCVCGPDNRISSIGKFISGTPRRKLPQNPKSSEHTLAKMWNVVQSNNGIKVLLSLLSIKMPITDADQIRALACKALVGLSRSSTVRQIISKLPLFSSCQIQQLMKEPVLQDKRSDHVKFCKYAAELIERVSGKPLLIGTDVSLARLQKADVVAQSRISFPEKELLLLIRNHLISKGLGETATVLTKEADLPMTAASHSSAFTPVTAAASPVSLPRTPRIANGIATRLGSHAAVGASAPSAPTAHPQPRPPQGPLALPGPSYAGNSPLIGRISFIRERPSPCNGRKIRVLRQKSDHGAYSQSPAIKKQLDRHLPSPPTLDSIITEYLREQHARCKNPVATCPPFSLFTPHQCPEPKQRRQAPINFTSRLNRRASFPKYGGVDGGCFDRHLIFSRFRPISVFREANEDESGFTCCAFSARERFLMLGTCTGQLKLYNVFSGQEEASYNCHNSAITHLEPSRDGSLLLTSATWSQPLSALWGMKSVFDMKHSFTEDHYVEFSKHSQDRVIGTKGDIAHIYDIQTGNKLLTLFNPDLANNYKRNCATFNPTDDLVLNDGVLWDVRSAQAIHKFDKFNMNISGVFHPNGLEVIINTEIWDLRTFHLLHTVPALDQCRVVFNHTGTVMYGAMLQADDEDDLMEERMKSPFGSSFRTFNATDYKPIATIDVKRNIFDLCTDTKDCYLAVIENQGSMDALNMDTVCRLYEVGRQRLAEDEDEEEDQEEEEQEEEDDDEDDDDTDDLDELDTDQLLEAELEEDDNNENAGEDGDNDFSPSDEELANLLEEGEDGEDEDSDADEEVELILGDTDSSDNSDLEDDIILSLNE
UniProt Q8TEW0: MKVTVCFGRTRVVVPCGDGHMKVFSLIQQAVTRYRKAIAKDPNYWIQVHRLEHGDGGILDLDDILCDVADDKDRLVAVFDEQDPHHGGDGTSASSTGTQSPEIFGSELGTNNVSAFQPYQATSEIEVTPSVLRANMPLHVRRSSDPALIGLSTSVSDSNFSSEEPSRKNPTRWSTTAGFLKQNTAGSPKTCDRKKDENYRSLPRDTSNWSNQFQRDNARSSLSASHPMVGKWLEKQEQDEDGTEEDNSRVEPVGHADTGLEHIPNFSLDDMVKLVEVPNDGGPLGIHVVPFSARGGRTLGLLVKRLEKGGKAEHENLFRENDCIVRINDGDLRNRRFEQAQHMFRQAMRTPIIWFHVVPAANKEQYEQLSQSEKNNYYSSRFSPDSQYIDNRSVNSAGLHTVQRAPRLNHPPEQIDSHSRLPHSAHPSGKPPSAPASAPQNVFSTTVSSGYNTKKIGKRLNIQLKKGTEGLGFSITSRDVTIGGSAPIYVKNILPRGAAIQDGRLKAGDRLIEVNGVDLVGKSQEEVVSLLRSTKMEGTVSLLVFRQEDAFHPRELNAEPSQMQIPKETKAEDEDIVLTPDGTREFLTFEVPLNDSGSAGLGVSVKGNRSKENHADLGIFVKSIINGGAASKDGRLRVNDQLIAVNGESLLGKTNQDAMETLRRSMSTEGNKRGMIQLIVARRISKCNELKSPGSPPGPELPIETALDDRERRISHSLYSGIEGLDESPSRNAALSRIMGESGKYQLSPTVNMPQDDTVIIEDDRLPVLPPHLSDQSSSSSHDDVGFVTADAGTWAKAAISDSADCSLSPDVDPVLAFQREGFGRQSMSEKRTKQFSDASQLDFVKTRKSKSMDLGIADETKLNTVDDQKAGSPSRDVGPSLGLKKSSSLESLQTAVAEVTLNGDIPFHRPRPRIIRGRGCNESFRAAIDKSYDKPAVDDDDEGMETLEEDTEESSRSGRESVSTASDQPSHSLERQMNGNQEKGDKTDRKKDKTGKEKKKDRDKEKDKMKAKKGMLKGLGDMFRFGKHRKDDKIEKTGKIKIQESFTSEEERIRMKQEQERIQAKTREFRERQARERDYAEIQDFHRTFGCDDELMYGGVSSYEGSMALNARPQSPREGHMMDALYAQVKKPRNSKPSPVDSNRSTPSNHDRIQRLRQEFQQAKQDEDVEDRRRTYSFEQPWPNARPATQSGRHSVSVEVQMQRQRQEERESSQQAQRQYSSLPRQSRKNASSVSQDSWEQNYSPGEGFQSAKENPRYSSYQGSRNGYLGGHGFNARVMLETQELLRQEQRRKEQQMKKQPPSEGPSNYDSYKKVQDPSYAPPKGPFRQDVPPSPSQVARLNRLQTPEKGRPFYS

These are yes or no findings as the source states them, for the method shown. In cells and extracts the contact can be indirect. Binding calls can cover weak binding; strength is not graded here.

Take “par-3 family cell polarity regulator (PARD3) (from UniProt Q8TEW0 1-1356)”: the binding entry is on record as “binds”.

The record behind these values is paper PMC11071249.
